This note sets out measurements from PMC12165065.

Chains of the proteins cited; added tags and fusions are not shown.
UniProt Q99873: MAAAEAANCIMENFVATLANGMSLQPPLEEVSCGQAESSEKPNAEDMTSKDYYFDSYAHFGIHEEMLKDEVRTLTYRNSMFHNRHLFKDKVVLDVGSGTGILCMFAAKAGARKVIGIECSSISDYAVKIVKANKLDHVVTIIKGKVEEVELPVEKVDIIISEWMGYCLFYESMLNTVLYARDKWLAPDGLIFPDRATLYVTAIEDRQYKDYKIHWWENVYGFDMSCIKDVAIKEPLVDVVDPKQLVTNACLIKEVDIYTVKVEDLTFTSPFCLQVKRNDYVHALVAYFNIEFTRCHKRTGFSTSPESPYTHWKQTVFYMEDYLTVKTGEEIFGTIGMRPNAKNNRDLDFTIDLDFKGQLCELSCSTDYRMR
UniProt Q92922: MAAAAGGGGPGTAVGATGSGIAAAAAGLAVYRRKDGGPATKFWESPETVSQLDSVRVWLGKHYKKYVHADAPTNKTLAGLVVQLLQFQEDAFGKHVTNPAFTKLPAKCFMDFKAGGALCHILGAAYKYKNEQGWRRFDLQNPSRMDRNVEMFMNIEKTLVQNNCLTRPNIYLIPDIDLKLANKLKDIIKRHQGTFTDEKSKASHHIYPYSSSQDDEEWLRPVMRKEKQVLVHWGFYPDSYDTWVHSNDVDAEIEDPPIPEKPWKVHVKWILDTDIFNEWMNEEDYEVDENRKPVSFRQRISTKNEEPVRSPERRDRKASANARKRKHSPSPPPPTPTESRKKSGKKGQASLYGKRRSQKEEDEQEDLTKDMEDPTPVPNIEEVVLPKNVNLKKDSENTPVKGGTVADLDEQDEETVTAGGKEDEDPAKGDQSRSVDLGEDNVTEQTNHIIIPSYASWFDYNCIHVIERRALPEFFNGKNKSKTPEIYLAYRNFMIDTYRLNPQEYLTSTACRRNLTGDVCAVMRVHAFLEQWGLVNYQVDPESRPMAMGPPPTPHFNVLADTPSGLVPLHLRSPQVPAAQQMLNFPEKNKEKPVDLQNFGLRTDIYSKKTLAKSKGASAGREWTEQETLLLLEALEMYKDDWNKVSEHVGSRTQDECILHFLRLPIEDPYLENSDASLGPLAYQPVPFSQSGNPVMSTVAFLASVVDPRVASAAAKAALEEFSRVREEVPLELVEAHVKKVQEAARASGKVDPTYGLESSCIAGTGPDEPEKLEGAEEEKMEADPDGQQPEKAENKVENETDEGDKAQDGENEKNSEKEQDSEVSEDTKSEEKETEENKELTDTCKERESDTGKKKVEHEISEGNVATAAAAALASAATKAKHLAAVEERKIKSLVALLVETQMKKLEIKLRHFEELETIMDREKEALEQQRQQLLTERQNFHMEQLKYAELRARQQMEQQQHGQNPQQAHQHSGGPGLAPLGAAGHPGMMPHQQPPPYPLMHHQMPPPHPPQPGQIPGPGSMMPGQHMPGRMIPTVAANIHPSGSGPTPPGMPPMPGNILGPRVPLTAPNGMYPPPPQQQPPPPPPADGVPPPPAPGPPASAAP

This test has as its target protein arginine methyltransferase 1 (PRMT1), endogenous (human (endogenous in LIU-LSC-1)) (UniProt Q99873). Kind of test: affinity purification with mass spectrometry; PRMT1 or IgG antibodies on magnetic beads, LIU-LSC-1 lysate supernatant, overnight at 4 °C; eluate on 4–12% SDS-PAGE, bands excised, LC-MS.

No constants are given. Whether binding was seen depends on the method and setting. Binding seen in cells or lysates may run through a third protein. These calls come from enrichment with a bait or labelling near it, and not all partners need be listed.

For the substance “SWI/SNF related, matrix associated, actin dependent regulator of chromatin subfamily C member 1 (SMARCC1), endogenous (from UniProt Q92922 1-1105)”, the binding entry is “binds”.
